Data: paper PMC10511709

Protein sequences, listed by entry. Tags and fused reporters are not part of them.
UniProt Q9LS94: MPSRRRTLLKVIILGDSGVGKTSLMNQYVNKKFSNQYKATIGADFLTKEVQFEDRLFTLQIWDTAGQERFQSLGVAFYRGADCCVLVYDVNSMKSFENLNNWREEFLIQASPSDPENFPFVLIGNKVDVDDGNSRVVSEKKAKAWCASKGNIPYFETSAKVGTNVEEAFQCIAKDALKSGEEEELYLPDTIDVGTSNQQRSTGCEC

Assays:
Assay in all cases: affinity purification with mass spectrometry; Arabidopsis root microsomes of YFP-Rab lines; extraction with 100 uM GTP-gamma-S; cross-linked with 1 mM DTSSP; solubilised in 2% CHAPS; anti-GFP uMACS magnetic microbeads; LC-MS/MS, three replicates per genotype
[1] = target: T1, YFP-RABA2a (Arabidopsis thaliana) (UniProt O04486)
T1 sequence: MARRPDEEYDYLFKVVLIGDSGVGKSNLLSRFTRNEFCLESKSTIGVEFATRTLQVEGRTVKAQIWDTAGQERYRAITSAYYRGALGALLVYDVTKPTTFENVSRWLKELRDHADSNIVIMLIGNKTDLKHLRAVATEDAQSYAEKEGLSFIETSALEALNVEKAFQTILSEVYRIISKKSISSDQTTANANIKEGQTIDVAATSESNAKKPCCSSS

[2] = target: YFP-RABG3f (Arabidopsis thaliana) (UniProt Q9LS94)
[3] = target: T2, YFP-RABA5c (Arabidopsis thaliana) (UniProt P28187)
T2 sequence: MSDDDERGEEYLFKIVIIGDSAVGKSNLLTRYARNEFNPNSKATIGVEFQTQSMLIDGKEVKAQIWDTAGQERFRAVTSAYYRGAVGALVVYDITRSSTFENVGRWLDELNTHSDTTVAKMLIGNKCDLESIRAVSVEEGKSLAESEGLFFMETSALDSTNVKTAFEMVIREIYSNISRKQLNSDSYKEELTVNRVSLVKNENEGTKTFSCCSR

- binding [1]: no binding
- binding [2]: binds
- binding [3]: no binding
B1: NET4B, endogenous in Arabidopsis roots (protein, UniProt Q84VY2 1-517)
chain: MASSTAQSKKQFKRSMTKKSHSWWWDSHNCPKNSKWLAENLEKMDDRVNHMLKLIEEDADSFAKKAQMYFQKRPELIQLVEEFYRMYRALAERYDQASGELQKNHTSEIQSQSSLEISSPTKEKLSRRQSSHKEEEDSSSLTDSGSDSDHSSANDEDGDEALIRRMAELELELQETKQKLLLQQESVDGDNNVDLLHKITTYEGELKEANEKMRMHEDEIANLKNQLQSFMSFDTEDHLGAEQKSVDLDKEDTKEDAVATKVLALEEELSIAKEKLQHFEKETYSLKNELEIGKAAEEKLKSLQHELELAQRDADTYINKLNAEKKEVLKLQERLAMVKTSLQDRDNEIRALKTAVSDAEQKIFPEKAQIKGEMSKMLEERSQLGEQLRELESHIRLIKEEKAETEEKLRGGTEKISGMRDESNVLREEIGKREEKIKETEKHMEELHMEQVRLRRRSSELTEEVERTRVSASEMAEQKREAIRQLCMSLDHYRDGYDRLWRVVAGHKSKRVVVLST

Results are given in words; binding and its absence hold for the method and conditions named. Binding seen in cells or lysates may run through a third protein. These calls come from enrichment with a bait or labelling near it, and not all partners need be listed. For part of these data: A no says only that the protein was not detected with the bait. For part of these data: Tags and fused reporters may be left off the sequences shown.
